Assay results taken from patent publication US6723838.
Results are given in words; binding and its absence hold for the method and conditions named. In cells and extracts the contact can be indirect. Some entries that bind do so weakly or less than the wild type.

Experiments:
[1] = biological target: T1, SAP102 of rat brain (endogenous) (rat) (UniProt Q62936); test: coimmunoprecipitation from rat brain membranes (restated)
T1 sequence (looked up): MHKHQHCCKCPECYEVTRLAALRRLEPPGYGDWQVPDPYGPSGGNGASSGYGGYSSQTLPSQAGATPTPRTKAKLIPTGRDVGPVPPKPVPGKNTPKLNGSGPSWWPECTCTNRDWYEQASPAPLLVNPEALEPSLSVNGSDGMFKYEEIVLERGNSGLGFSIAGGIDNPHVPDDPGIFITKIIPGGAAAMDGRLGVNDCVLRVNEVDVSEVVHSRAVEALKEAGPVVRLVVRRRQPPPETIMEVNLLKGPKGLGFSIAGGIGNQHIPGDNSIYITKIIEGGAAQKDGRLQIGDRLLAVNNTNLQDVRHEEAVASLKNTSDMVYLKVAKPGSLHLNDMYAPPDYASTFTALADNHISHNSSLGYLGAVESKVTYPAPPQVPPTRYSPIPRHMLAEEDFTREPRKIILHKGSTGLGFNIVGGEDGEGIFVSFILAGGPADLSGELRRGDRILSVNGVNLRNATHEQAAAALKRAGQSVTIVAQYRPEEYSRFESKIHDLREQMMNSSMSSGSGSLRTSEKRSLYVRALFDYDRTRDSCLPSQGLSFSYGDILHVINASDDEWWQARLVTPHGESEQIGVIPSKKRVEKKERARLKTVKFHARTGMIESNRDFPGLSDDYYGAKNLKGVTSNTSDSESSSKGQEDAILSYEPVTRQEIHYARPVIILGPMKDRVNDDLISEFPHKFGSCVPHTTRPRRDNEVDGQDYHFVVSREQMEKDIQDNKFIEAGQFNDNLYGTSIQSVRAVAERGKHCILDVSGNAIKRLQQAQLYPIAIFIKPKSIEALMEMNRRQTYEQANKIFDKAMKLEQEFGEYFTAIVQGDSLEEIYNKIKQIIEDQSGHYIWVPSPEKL

[2] = biological target: T1, SAP102 of rat brain (endogenous) (rat); test: coimmunoprecipitation from rat brain membranes, immunoblot

B1: SYNGAP of rat brain (endogenous) (protein)
chain: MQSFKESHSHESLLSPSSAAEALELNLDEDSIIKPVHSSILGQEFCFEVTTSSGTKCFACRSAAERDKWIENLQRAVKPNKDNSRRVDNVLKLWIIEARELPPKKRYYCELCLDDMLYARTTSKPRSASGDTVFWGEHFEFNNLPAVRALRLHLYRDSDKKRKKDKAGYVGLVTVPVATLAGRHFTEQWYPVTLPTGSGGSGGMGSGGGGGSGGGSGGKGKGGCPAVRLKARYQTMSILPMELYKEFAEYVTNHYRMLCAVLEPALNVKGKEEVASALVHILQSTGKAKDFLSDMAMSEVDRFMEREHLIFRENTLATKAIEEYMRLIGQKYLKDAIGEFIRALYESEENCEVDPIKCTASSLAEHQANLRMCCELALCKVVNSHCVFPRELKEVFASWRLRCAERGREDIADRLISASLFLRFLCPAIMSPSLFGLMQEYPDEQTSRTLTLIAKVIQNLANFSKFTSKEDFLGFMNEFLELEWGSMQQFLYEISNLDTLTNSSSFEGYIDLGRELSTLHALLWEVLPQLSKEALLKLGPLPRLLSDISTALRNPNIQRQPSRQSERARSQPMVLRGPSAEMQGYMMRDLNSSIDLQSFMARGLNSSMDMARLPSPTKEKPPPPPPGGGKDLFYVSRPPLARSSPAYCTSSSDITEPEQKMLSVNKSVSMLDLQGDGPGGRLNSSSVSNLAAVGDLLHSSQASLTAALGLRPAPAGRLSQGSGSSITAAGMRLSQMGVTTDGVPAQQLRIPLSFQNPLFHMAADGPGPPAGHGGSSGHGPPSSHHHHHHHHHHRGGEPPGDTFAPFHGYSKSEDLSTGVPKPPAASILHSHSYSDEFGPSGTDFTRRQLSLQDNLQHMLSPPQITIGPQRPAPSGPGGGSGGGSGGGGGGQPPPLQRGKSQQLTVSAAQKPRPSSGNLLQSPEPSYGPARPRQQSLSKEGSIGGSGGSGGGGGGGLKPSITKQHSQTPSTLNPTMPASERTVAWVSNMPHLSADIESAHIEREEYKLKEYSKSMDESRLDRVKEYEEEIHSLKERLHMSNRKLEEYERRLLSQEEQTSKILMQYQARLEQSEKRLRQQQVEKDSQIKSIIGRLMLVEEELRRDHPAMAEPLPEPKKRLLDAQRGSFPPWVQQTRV
binding [1]: binds | binding [2]: binds
